Values from PubChem BioAssay AID1259254 (NCATS, 2017).
Shown is one part, drawn at random, of about 59,000 reagents. In the full data, about 1,550 (2.6%) were called active. 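G2 share is only a proxy for re-replication; each gene was hit by three separate siRNAs, and active genes were retested.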 Raw values vary from plate to plate and are shown uncorrected. Entries without a mark were called inactive. The numbers tell different reagents against one gene apart. Not given: the amount of reagent.

Aim: 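Finding genes that stop cells copying their DNA twice in one cycle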 (primary screen)
Cells: human HCT116 colorectal cancer cells
Reagent: single siRNA against human genes
Duration: 3 days
Measured: 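Imaged Hoechst DNA stain sorts each cell into a cycle phase by DNA amount; per plate, G2 fraction set to 0% for non-targeting and 100% for GMNN siRNA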
Scale: G2 robust z-score and G2 cells, % of GMNN control: higher = more G2 cells, more excess DNA replication; raw share of cells in G2: higher = larger share of cells with G2 DNA content
Rule for the call: 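Active siRNAs have a G2 robust z of 5 or more median absolute deviations over the median, which in these data means about 38% or higher of GMNN control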

no.	Gene	reagent	G2 robust z-score	G2 cells, % of GMNN control	raw share of cells in G2 (%)
1	SMIM12 (small integral membrane protein 12)	1	0.13	3.88	5.65
2	SMIM12 (small integral membrane protein 12)	2	-0.128	2.07	3.95
3	SMIM12 (small integral membrane protein 12)	3	-0.971	-3.86	0.69
4	MARVELD3 (MARVEL domain containing 3)	1	0.588	7.1	8.97
5	MARVELD3 (MARVEL domain containing 3)	2	0.109	3.73	6.57
6	MARVELD3 (MARVEL domain containing 3)	3	-0.692	-1.9	3.76
7	RWDD2B (RWD domain containing 2B)	1	-0.57	-1.05	4.86
8	RWDD2B (RWD domain containing 2B)	2	-0.489	-0.476	3.75
9	RWDD2B (RWD domain containing 2B)	3	0.0347	3.21	4.57
10	LINC01104 (long independently transcribed non-coding RNA 1104)	1	0.771	8.39	6.64
11	LINC01104 (long independently transcribed non-coding RNA 1104)	2	-0.306	0.813	3.16
12	LINC01104 (long independently transcribed non-coding RNA 1104)	3	1.3	12.1	7.29
13	ITGA10 (integrin subunit alpha 10)	1	-0.535	-0.799	4.98
14	ITGA10 (integrin subunit alpha 10)	2	-0.374	0.337	4.69
15	ITGA10 (integrin subunit alpha 10)	3	1.99	16.9	10.8
16	SUPT5H (SPT5 homolog, DSIF elongation factor subunit)	1	2.2	18.5	10.1
17	SUPT5H (SPT5 homolog, DSIF elongation factor subunit)	2	8.27 (active)	61.2	26.3
18	SUPT5H (SPT5 homolog, DSIF elongation factor subunit)	3	0.0583	3.38	5.7
19	LINC01625 (long independently transcribed non-coding RNA 1625)	1	1.17	11.2	8.01
20	LINC01625 (long independently transcribed non-coding RNA 1625)	2	0.85	8.95	6.54
21	LINC01625 (long independently transcribed non-coding RNA 1625)	3	-0.412	0.0716	3.07
22	APOC3 (apolipoprotein C3)	1	-0.507	-0.602	4.51
23	APOC3 (apolipoprotein C3)	2	1.26	11.8	8.4
24	APOC3 (apolipoprotein C3)	3	0.452	6.14	7.26
25	C10orf62 (chromosome 10 open reading frame 62)	1	-0.377	0.313	3.92
26	C10orf62 (chromosome 10 open reading frame 62)	2	0.246	4.7	5.38
27	C10orf62 (chromosome 10 open reading frame 62)	3	-0.857	-3.06	3.52

Continued, starting with the last 2 of the part before.
no.	Gene	reagent	G2 robust z-score	G2 cells, % of GMNN control	raw share of cells in G2 (%)
26	C10orf62 (chromosome 10 open reading frame 62)	2	0.246	4.7	5.38
27	C10orf62 (chromosome 10 open reading frame 62)	3	-0.857	-3.06	3.52
28	SLC71A2	1	-0.545	-0.867	4.47
29	SLC71A2	2	0.425	5.95	7.91
30	SLC71A2	3	3.47	27.4	14.1
31	CCDC149 (coiled-coil domain containing 149)	1	0.0274	3.16	5.42
32	CCDC149 (coiled-coil domain containing 149)	2	-0.252	1.19	3.37
33	CCDC149 (coiled-coil domain containing 149)	3	0.937	9.56	5.96
34	TBC1D13 (TBC1 domain family member 13)	1	-0.595	-1.22	3.33
35	TBC1D13 (TBC1 domain family member 13)	2	-0.817	-2.78	3.22
36	TBC1D13 (TBC1 domain family member 13)	3	2.36	19.6	14.8
37	IRS2 (insulin receptor substrate 2)	1	1.88	16.2	12.3
38	IRS2 (insulin receptor substrate 2)	2	0.0715	3.47	5.27
39	IRS2 (insulin receptor substrate 2)	3	0.244	4.69	5
40	SCGN (secretagogin, EF-hand calcium binding protein)	1	-0.669	-1.74	2.95
41	SCGN (secretagogin, EF-hand calcium binding protein)	2	-0.789	-2.58	4.84
42	SCGN (secretagogin, EF-hand calcium binding protein)	3	2.83	22.8	12.9
43	CLUL1 (clusterin like 1)	1	-1.13	-5	1.94
44	CLUL1 (clusterin like 1)	2	2.02	17.2	11.1
45	CLUL1 (clusterin like 1)	3	-1.3	-6.17	1.31
46	PPCS (phosphopantothenoylcysteine synthetase)	1	-0.648	-1.59	4.77
47	PPCS (phosphopantothenoylcysteine synthetase)	2	1.27	11.9	9.2
48	PPCS (phosphopantothenoylcysteine synthetase)	3	0.366	5.54	6.2
